39 compounds from the supplement of paper PMC12872613 can be followed below.

Structures are written as SMILES. Structures can show the parent of a compound that is named as a salt. This is one part of the list. Rule as the data show it: active = 0.7 or more and inactive = the rest. Many values rest on one well or one pass, so single values are uncertain.

This test concerns MiaPaCa-2 CLSA-25. In words: cell death relative to DMSO vehicle (fraction); higher = more cytotoxic. Particulars: 5 µM; treatment time 48 h; medium cystine 25 µM.
Consider `Cc1ccccc1N1C(=O)c2cc(S(N)(=O)=O)c(Cl)cc2NC1C` (centres undefined) [Metolazone], for which the cell death is inactive: 0.0813.
Take `CCC(C)(Oc1ccc(C2(c3ccc(OC(C)(CC)C(=O)O)cc3)CCCCC2)cc1)C(=O)O` (centres undefined) [Clinofibrate]: the cell death is inactive: -0.011.
On to `O=C(C=Cc1ccccc1)NC(NC(=S)Nc1ccc(Cl)cc1)C(Cl)(Cl)Cl` (centres undefined), for which the cell death is inactive: 0.36.
With `O=C1O[C@H]([C@@H](O)CO)C(O)=C1OP(=O)(O)O` [Sodium L-ascorbyl-2-phosphate], the cell death is inactive: 0.0952.
For `O=C(O)/C=C/c1ccc(Cn2ccnc2)cc1` [Ozagrel hydrochloride], the cell death was inactive: 0.227.
`CC1=C[C@]2(O)O[C@@]3(CC2=C(C)C)[C@@H](C)CC[C@@H]13` [Curcumenol]: the cell death is inactive: 0.181.
As for `C=C1/C(=C\C=C2/CCC[C@]3(C)[C@@H]([C@H](C)CCCC(C)(C)O)CC[C@@H]23)C[C@@H](O)C[C@@H]1O` [Calcitriol], the figure is inactive: 0.177; as for `S=c1[nH]cnc2nc[nH]c12` [Mercaptopurine], inactive: 0.0305; as for `CC[C@H](C)C(=O)O[C@H]1C[C@@H](C)C=C2C=C[C@H](C)[C@H](CC[C@@H]3C[C@@H](O)CC(=O)O3)[C@H]21` [Lovastatin], inactive: 0.607.
For `C[N+](C)(C)CC(O)CC(=O)[O-]` (racemic) [DL-Carnitine], the cell death is inactive: 0.102.
In the case of `CC[C@H](CC#N)OC(=O)N[C@@H](C)c1cccc(NC(=O)Nc2ccc(-c3cnco3)c(OC)c2)c1`, the cell death was inactive: 0.333.
For `CC(C)/N=c1\cc2n(-c3ccc(Cl)cc3)c3ccccc3nc-2cc1Nc1ccc(Cl)cc1` [Clofazimine], the cell death is inactive: 0.33.
`CN(C)C[C@@H]1CCn2cc(c3ccccc32)C2=C(C(=O)NC2=O)c2cn(c3ccccc23)CCO1` [Ruboxistaurin hydrochloride]: the cell death is inactive: 0.171.
On to `O=C(CCNNC(=O)c1ccncc1)NCc1ccccc1` [Nialamide], for which the cell death is inactive: 0.263.
For `CCCN(CCC)S(=O)(=O)c1ccc(C(=O)O)cc1` [Probenecid], the cell death was inactive: 0.219.
Regarding `COC[C@H](NC(=O)c1cnc(C)s1)C(=O)N[C@@H](COC)C(=O)N[C@@H](Cc1ccccc1)C(=O)[C@@]1(C)CO1` [Oprozomib], the cell death is active: 0.718.
In the case of `CC(C)(Sc1cc(C(C)(C)C)c(O)c(C(C)(C)C)c1)Sc1cc(C(C)(C)C)c(O)c(C(C)(C)C)c1` [Probucol], the cell death was inactive: 0.229.
For the compound `O=C(OC(C(F)(F)F)C(F)(F)F)N1CCC(C(O)(c2ccc3c(c2)OCO3)c2ccc3c(c2)OCO3)CC1`, the cell death is inactive: 0.107.
As to `CC(C)(C)C#Cc1cc(N(C(=O)[C@H]2CC[C@H](C)CC2)[C@H]2CC[C@H](O)CC2)c(C(=O)O)s1` [Lomibuvir], the cell death is inactive: 0.187.
With `NS(=O)(=O)Cc1noc2ccccc12` [Zonisamide], the cell death was inactive: 0.175.
Take `COc1c2occc2cc2ccc(=O)oc12` [8-Methoxypsoralen]: the cell death was active: 0.829.
As for `CC(C)CC(N)=O` [Isovaleramide], the cell death was inactive: 0.152.
On to `Cc1cc(OCCCS(C)(=O)=O)cc(C)c1-c1cccc(COc2ccc3c(c2)OC[C@H]3CC(=O)O)c1`, for which the cell death is inactive: 0.587.
Under `COc1ccc(-c2nc3cc(C4=NNC(=O)CC4C)ccc3[nH]2)cc1` (centres undefined) [Pimobendan] stands inactive: 0.591; under `O=c1c(-c2ccc(O)cc2)coc2cc(O)ccc12` [Daidzein], inactive: 0.042; under `Cn1cc(C(=O)Nc2ccc3c(c2)OCCO3)c2ccccc2c1=O`, inactive: 0.
As for `CC(=O)c1ccc(S(=O)(=O)NC(=O)NC2CCCCC2)cc1` [Acetohexamide], the figure is inactive: 0.414; as for `CC(C)OC(=O)CCC/C=C\C[C@@H]1[C@@H](CC[C@@H](O)CCc2ccccc2)[C@H](O)C[C@@H]1O` [Latanoprost], inactive: 0.124.
Under `COc1ccccc1OCC(O)COC(N)=O` (centres undefined) [Methocarbamol] stands inactive: 0.0891; under `O=C(O)c1cc(F)c2nc(N3[C@@H]4CC[C@H]3C[C@@H](OCc3c(-c5ccccc5OC(F)(F)F)noc3C3CC3)C4)sc2c1` [Tropifexor], inactive: 0.598; under `O=C(O)C[C@H](O)C[C@H](O)/C=C/c1c(C2CC2)nc2ccccc2c1-c1ccc(F)cc1` [Pitavastatin calcium], inactive: 0.587.
`Cc1cc([N+](=O)[O-])ccc1NS(=O)(=O)c1cc(Cl)ccc1Cl`: the cell death is active: 0.733.
Take `O=C1CN2Cc3c(ccc(Cl)c3Cl)N=C2N1` [Anagrelide]: the cell death is inactive: 0.453.
Take `OCc1ccccc1` [Benzyl alcohol]: the cell death is inactive: 0.291.
Consider `CC(=O)OCC(=O)[C@@]12OC(C)(C)O[C@@H]1C[C@H]1[C@@H]3C[C@H](F)C4=CC(=O)C=C[C@]4(C)[C@@]3(F)[C@@H](O)C[C@@]12C` [Fluocinonide], for which the cell death was inactive: 0.195.
Take `C=CCc1ccc(O)c(-c2ccc(O)c(CC=C)c2)c1` [Honokiol]: the cell death was inactive: 0.611.
With `O=C(O)c1ccc2c(c1)nc(Nc1cccc(Cl)c1)c1ccncc12` [Silmitasertib], the cell death is active: 0.742.
As for `N#Cc1ccnc(N2C(=O)CC[C@H]2C(=O)N(c2cncc(F)c2)[C@H](C(=O)NC2CC(F)(F)C2)c2ccccc2Cl)c1` [Ivosidenib], the cell death was inactive: 0.191.
In the case of `C=C(C)[C@@H]1CC[C@]2(C(=O)O)CC[C@]3(C)[C@H](CC[C@@H]4[C@@]5(C)CC[C@H](O)C(C)(C)[C@@H]5CC[C@]43C)[C@@H]12` [Betulinic acid], the cell death was inactive: 0.00241.
